This data set addresses T1, GlyR3 (Clostridium thermocellum) (UniProt Q9AL35).
T1 sequence (looked up, limits assumed): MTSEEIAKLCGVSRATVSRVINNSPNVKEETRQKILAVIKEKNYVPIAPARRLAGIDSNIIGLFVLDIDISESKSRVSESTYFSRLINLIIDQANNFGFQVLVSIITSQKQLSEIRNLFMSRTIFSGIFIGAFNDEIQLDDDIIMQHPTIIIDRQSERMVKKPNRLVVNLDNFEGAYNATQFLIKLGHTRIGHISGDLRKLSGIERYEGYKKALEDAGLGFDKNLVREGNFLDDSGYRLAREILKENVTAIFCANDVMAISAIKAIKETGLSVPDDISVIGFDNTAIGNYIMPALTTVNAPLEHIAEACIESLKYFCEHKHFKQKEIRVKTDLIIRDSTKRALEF
Kind of data set: EMSA. As to conditions: LightShift Chemiluminescent EMSA kit, TBE gel, 0.2 ng biotin-DNA (0.156-0.204 nM), GlyR3 150 ng (387 nM) unless titrated, binding buffer salt, recombinant protein, protein details: expressed from pTXB1 (IMPACT intein system, NEB), label: 5'-biotin on forward primer, probe letters rebuilt from the primers and the genome.

Construct, isoform or probe ends are uncertain for at least one entry. Protein sequences can lack the tags named with them.

Consider “CCGAATAAAAACTGGACAGAGAAGAAGAAAACGTGATATAATTAAATTAGAATGAACGCGCGTACATTATTGAATAATCCAGTGTTAAATGGTTTCAGTTTACGATTTCAAATGTTTATATCCAATTTACATTTAAAAACATACAAAACATCAAAAGTATTTAATACCAATATTTAAAACACAATATTTCAGGAGGA (double strand) [celC EMSA fragment]”, for which the binding signal was 82 % shifted (387 nM GlyR3, 50 mM laminaribiose) and 67 % shifted (387 nM GlyR3, 100 mM laminaribiose).

The values are drawn from paper PMC5483248, “The LacI family protein GlyR3 co-regulates the celC operon and manB in Clostridium thermocellum” (Biotechnology for Biofuels, 2017).
